PubChem BioAssay AID1259254 | NCATS – 2017
This is one part, drawn at random, of about 59,000 reagents. About 1,550 of all reagents (2.6%) were called active. 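G2 share is only a proxy for re-replication; each gene was hit by three separate siRNAs, and active genes were retested.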 The numbers tell different reagents against one gene apart. Not all columns of the deposit are shown. Reagent sequences are not shown. Not given: the amount of reagent.

Aim: 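Genome-wide screen for genes that prevent DNA re-replication in cancer cells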 (primary screen)
Cells: human HCT116 colorectal cancer cells
Knock-down reagent: single siRNA against human genes
Time to read-out: 3 days
Read-out: 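Imaged Hoechst DNA stain sorts each cell into a cycle phase by DNA amount; per plate, G2 fraction set to 0% for non-targeting and 100% for GMNN siRNA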
Direction: G2 robust z-score: higher = more G2 cells, more excess DNA replication
Hit rule: 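Active siRNAs have a G2 robust z of 5 or more median absolute deviations over the median, which in these data means about 38% or higher of GMNN control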

G2 robust z-score | outcome | gene | reagent
6.93 | active | TIMM10B | 1
-0.402 | inactive | TIMM10B | 2
-0.114 | inactive | TIMM10B | 3
2.86 | inactive | IER2 | 1
-0.089 | inactive | IER2 | 2
-0.155 | inactive | IER2 | 3
2.78 | inactive | MED7 | 1
3.13 | inactive | MED7 | 2
1.7 | inactive | MED7 | 3
1.15 | inactive | KCNJ12 | 1
2.31 | inactive | KCNJ12 | 2
-0.698 | inactive | KCNJ12 | 3
-1.07 | inactive | ASTE1 | 1
1.92 | inactive | ASTE1 | 2
0.758 | inactive | ASTE1 | 3
0.343 | inactive | SDAD1 | 1
-0.0113 | inactive | SDAD1 | 2
0.149 | inactive | SDAD1 | 3
0.951 | inactive | CCDC154 | 1
-0.00467 | inactive | CCDC154 | 2
-0.443 | inactive | CCDC154 | 3
-0.742 | inactive | CXCL1 | 1
1.55 | inactive | CXCL1 | 2
0.516 | inactive | CXCL1 | 3
2.34 | inactive | RPS26P10 | 1
7.27 | active | RPS26P10 | 2
-1.33 | inactive | RPS26P10 | 3
-0.682 | inactive | CD55 | 1
-0.707 | inactive | CD55 | 2
-0.135 | inactive | CD55 | 3
-1.06 | inactive | THOC3 | 1
-0.891 | inactive | THOC3 | 2
2.5 | inactive | THOC3 | 3
0.734 | inactive | RAB37 | 1
-0.973 | inactive | RAB37 | 2
2.75 | inactive | RAB37 | 3
-1.24 | inactive | FKBP6 | 1
0.965 | inactive | FKBP6 | 2
-0.379 | inactive | FKBP6 | 3
0.214 | inactive | ACTL7B | 1
0.34 | inactive | ACTL7B | 2
2.45 | inactive | ACTL7B | 3
-0.832 | inactive | FGF14 | 1
0.158 | inactive | FGF14 | 2
-1.21 | inactive | FGF14 | 3
0.124 | inactive | XRCC1 | 1
-0.825 | inactive | XRCC1 | 2
-0.422 | inactive | XRCC1 | 3

Active calls, among the entries above:
G2 robust z-score | outcome | gene | reagent
6.93 | active | TIMM10B | 1
7.27 | active | RPS26P10 | 2

Additional records follow:
G2 robust z-score | outcome | gene | reagent
-1.63 | inactive | TRIM22 | 1
-1.24 | inactive | TRIM22 | 2
-1.11 | inactive | TRIM22 | 3
2.86 | inactive | ARFGEF2 | 1
0.0327 | inactive | ARFGEF2 | 2
-0.717 | inactive | ARFGEF2 | 3
-0.561 | inactive | CPNE8 | 1
0.109 | inactive | CPNE8 | 2
-0.228 | inactive | CPNE8 | 3
0.982 | inactive | FUT8 | 1
1.36 | inactive | FUT8 | 2
0.441 | inactive | FUT8 | 3
-0.494 | inactive | RIMS2 | 1
-0.0784 | inactive | RIMS2 | 2
2.51 | inactive | RIMS2 | 3
0.394 | inactive | GJD2 | 1
-1.13 | inactive | GJD2 | 2
-0.485 | inactive | GJD2 | 3
-1.42 | inactive | RBM8A | 1
3.17 | inactive | RBM8A | 2
1.53 | inactive | RBM8A | 3
-0.993 | inactive | CLEC14A | 1
-0.995 | inactive | CLEC14A | 2
0.148 | inactive | CLEC14A | 3
-1.42 | inactive | ZNF773 | 1
-0.759 | inactive | ZNF773 | 2
0.0416 | inactive | ZNF773 | 3
-0.381 | inactive | RPL39L | 1
0.112 | inactive | RPL39L | 2
-1.02 | inactive | RPL39L | 3
0.867 | inactive | ARSB | 1
0.521 | inactive | ARSB | 2
-0.513 | inactive | ARSB | 3
0.11 | inactive | MMRN2 | 1
-0.2 | inactive | MMRN2 | 2
1.02 | inactive | MMRN2 | 3
0.196 | inactive | BCO2 | 1
0.266 | inactive | BCO2 | 2
-1.18 | inactive | BCO2 | 3
